Measurements from US8512974B2, “Method for assaying cell movement” (Platypus Technologies, LLC, priority 2003, dated 2013).

What was measured:
3T3 cells = experiment: Survey of liquid crystals for alignment by cells; format: cell-based; conditions: cultured 3T3 cells
[1] = Phospholipid influence on liquid crystal alignment: DOPG; parameters: key: H=homeotropically aligned; U=unaligned; C=cholesteric alignment; conditions: 2 ul 0.01 M in chloroform on glass slide

Structure (SMILES)	Liquid crystal alignment, 3T3 cells (3T3 cells)	Liquid crystal alignment, DOPG [1]
CCCCCCCCc1ccc(-c2ccc(C#N)cc2)cc1 [4OCB, 4′-octyl-4-biphenyl-carbonitrile]	Homeotropic	
CCCCCc1ccc(-c2ccc(C#N)cc2)cc1 [5CB, 4-cyano-4′-pentylbiphenyl]	Homeotropic	H
CCCCCC[C@H]1CC[C@H](c2ccc(N=C=S)cc2)CC1 [6CHBT, 1-(trans-4-hexylcyclohexyl)-4-isothiocyanato-benzene]	Homeotropic	H
